Results published in PubChem BioAssay AID1688 (National Center for Advancing Translational Sciences (NCATS), 2009).
Among all 220,000 compounds or so, about 2,400 (1.1%) were called active. This list was built around the results that the source calls inconclusive (neither active nor inactive); the mix of calls is not that of the screen. Calls come from the whole dose curve; as a rule, active = well fitted inhibition curve with a large enough effect; inconclusive = small, poorly fitted or top-dose-only effect, or effect the other way; inactive = no such curve, though single readings can be large or run the other way. Potencies beside an inconclusive call are fits to weak or partial responses and may not hold up.

Assay: qHTS Multiplex Assay to Identify Dual Action Probes in a Cell Model of Huntington: Aggregate Formation (GFP); note: nearly all actives have a fitted effect of over 60% in size
Conditions: PC12 HttQ103-GFP aggregates, Acumen cytometry, 40 h; activity change, negative = inhibition: at 46.1 µM (top of the series) unless noted
In short: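 Ecdysone-promoter PC12 model expressing HTT exon 1 Q103 fused to GFP, induced by tebufenozide at 100 nM final. Compounds titrated; aggregates sized 1–25 µm scored on a 488 nm laser cytometer.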
% is set by controls: 0 for no effect and ±100 for the full control effect; potency is the fitted concentration of half-maximal effect.

Compound | activity change, negative = inhibition | Potency
COc1cc2c(cc1NC(=O)COc1ccccc1OC)oc1ccccc12 | inactive: 9.44% | –
C/C(=N\NC(=S)NCc1ccccc1)c1ccccc1F | inactive: -24.8% | –
CNC(=O)/C(C#N)=C/c1cc(C)n(-c2ccc(N3CCOCC3)cc2)c1C | inactive: 9.25% [at 9.22 µM] | –
C/C(=N\NC(=O)C(N)=O)c1ccc2c(c1)OCCO2 | – | inconclusive: 35.5 µM [activator, single point]
CCCOc1cc(C)c(S(=O)(=O)n2ccc(C)n2)cc1C | – | active: 12.6 µM
Cn1nccc1CNC(=O)c1ccnn1C | inactive: 17.5% | –
COc1ccccc1-c1noc(CCC(=O)Nc2cccc(C)c2)n1 | inactive: 17.2% | –
COc1ccc(Nc2ccccc2N)cc1 | – | active: 12.6 µM
COc1ccc(CCN2C(=O)c3cccc4c(C(=O)N5CCCCC5)ccc(c34)C2=O)cc1OC | – | inconclusive: 35.5 µM [inhibitor, single point]
CCn1c(=N)n(CC(=O)c2ccc(OC)cc2)c2ccccc21 | inactive: -6.25% | –
CCN(CC)c1nc2nonc2nc1N(CC)CC | – | active: 0.447 µM
COc1ccc(/C=C\C(=O)c2c(O)ccc3c(C)cc(=O)oc23)cc1OC | – | inconclusive: 5.62 µM [activator, single point]
CCCOc1c(Br)cc(/C=N/O)cc1OC | – | inconclusive: 10 µM [inhibitor, partial curve]
O=C(NC1CCCCC1)c1sc(=S)n2c1[nH]c(=O)c1ccccc12 | – | inconclusive: 11.2 µM [inhibitor, single point]
CN(C)S(=O)(=O)c1cc(NC(=O)CN2CCCc3ccccc32)ccc1Cl | – | inconclusive: 11.2 µM [inhibitor, single point]
Cc1ccccc1-n1nnnc1Sc1nnnn1-c1ccccc1 | – | active: 14.1 µM
Cc1ccc(S(=O)(=O)Nc2ccc(=O)n(Cc3ccc(Cl)c(Cl)c3)c2)cc1 | – | inconclusive: 14.1 µM [inhibitor, single point]
CN1/C(=C\C(=O)COc2ccc3c(c2)OCO3)C(C)(C)c2ccccc21 | – | active: 22.4 µM
Cc1cccc(S(=O)(=O)Nc2ccc(C)c3c2OC(C)(C)C3)c1 | – | inconclusive: 35.5 µM [inhibitor, single point]
COc1ccc(-c2nnc(NC(=O)c3cc(Cl)ccc3Cl)o2)cc1 | – | inconclusive: 14.1 µM [inhibitor, single point]
COc1ccc(/C=C2\CCCC(C(=O)C(F)(F)F)=C2O)cc1OC | – | inconclusive: 35.5 µM [activator, single point]
COc1ccccc1N1C(=O)c2ccccc2NC1c1ccncc1 (stereo not drawn) | inactive: -13.2% | –
CCc1nn2cc(C(=O)c3cc(Cl)ccc3O)cnc2c1-c1ccc(F)cc1 | – | inconclusive: 35.5 µM [inhibitor, single point]
Cc1cc(C)n(-c2nnc(N3CCN(c4ccccc4)CC3)nn2)n1 | – | inconclusive: 3.16 µM [inhibitor, full curve, poor fit]
Clc1ccc2c(NCc3ccco3)ncnc2c1 | – | active: 14.1 µM

Compound | activity change, negative = inhibition | Potency
COC(=O)Oc1ccc(/C=N/NC(=O)CN(c2ccccc2Br)S(C)(=O)=O)cc1OC | – | inconclusive: 0.562 µM [activator, partial curve, poor fit]
O=C(Nc1nc(-c2ccccc2)cs1)C1CCCN(S(=O)(=O)c2cccc([N+](=O)[O-])c2)C1 (stereo not drawn) | – | inconclusive: 35.5 µM [inhibitor, single point]
Cc1c(C(=O)OCC(=O)NCc2ccc3c(c2)OCO3)cccc1[N+](=O)[O-] | inactive: 10.9% | –
CCSC1(SCC)N=C(N)C2(C#N)C(c3ccccc3)NC3=C(CCC3)C12C#N (stereo not drawn) | inactive: 18.9% | –
O=C(Nc1ccc(F)cc1F)c1noc2c1CCC2 | – | inconclusive: 10 µM [inhibitor, partial curve]
Cc1ccccc1-n1sc2cc(F)ccc2c1=O | – | inconclusive: 35.5 µM [inhibitor, partial curve, poor fit]
CCn1cc(C(=O)O)c(=O)c2cc(F)c(N/N=C/c3ccccc3[N+](=O)[O-])cc21 | – | inconclusive: 35.5 µM [inhibitor, single point]
NC(=S)Nc1ccc2c(c1)OCO2 | inactive: 12.5% | –
O=C(Nc1nc(-c2ccc(Cl)s2)cs1)c1cccs1 | – | inconclusive: 12.6 µM [inhibitor, partial curve]
O=C1CC(c2ccco2)CC(O)=C1C=Nc1ccccc1-c1ccccc1 (stereo not drawn) | – | inconclusive: 35.5 µM [inhibitor, single point]
O=C(Nc1nc2c(s1)COc1ccccc1-2)c1cccs1 | – | inconclusive: 12.6 µM [inhibitor, single point]
COc1cc(/C=C(\C#N)c2nc3ccccc3n2C)cc(OC)c1O | inactive: 17.2% | –
Cc1ccc(N(CC(=O)NCCSc2nc3ccccc3s2)S(=O)(=O)c2ccccc2)c(C)c1 | – | inconclusive: 12.6 µM [activator, single point]
COc1ccccc1N1CCN(C(=O)c2ccc(NS(=O)(=O)c3ccc(C)cc3)cc2)CC1 | – | inconclusive: 22.4 µM [inhibitor, single point]
O=C1C2C3C=CC(C3=C3CCCCC3)C2C(=O)N1c1ccccc1 (stereo not drawn) | inactive: -4.49% | –
Cc1ccc(C(=O)OCC(=O)c2ccc(Cl)s2)s1 | inactive: -10.5% | –
COc1ccc(NC(=O)/C(Cl)=C(/Cl)S(=O)Cc2ccccc2Cl)cn1 (stereo not drawn) | – | inconclusive: 5.62 µM [inhibitor, single point]
O=C(Oc1ccc(N(Cc2cccs2)C2=NS(=O)(=O)c3ccccc32)cc1)c1ccccc1Cl | inactive: 0.0759% | –
O=C(NNc1ccccc1Br)C(O)(c1cccc(C(F)(F)F)c1)c1cccc(C(F)(F)F)c1 | – | inconclusive: 35.5 µM [inhibitor, single point]
O=C1NC(=S)N/C1=C\c1ccccc1OCc1ccc(C(=O)O)cc1 | inactive: -7.23% [at 9.22 µM] | –
CCc1cc2c(N3CCN(c4nnc(CC)s4)CC3)ncnc2s1 | – | active: 17.8 µM
CN(NS(C)(=O)=O)c1ncc(C(F)(F)F)cc1Cl | – | inconclusive: 0.891 µM [inhibitor, single point]
COc1ccc(CNC(=O)C2COc3ccccc3O2)c(OC)c1 (stereo not drawn) | inactive: 15.6% | –
COc1cccc(C(=O)C(C#N)=C(SC)SC)c1 | inactive: 4.08% [at 9.22 µM] | –
Cn1nnnc1SCc1ccc(C(=O)Nc2ccccc2F)cc1 | – | inconclusive: 1.26 µM [activator, single point]

Compound | activity change, negative = inhibition | Potency
COc1cccc(C(=O)Nc2nc(-c3ccccc3)c(-c3ccccc3)o2)c1 | – | inconclusive: 7.08 µM [inhibitor, partial curve]
O=C(CN1C(=O)NC2(CCCCCC2)C1=O)N1CCC(Cc2ccccc2)CC1 | inactive: -15.4% | –
CC12CN3CC(C)(CN(C1)C3c1ccc(Cl)cc1Cl)C2O (stereo not drawn) | inactive: 11.5% | –
Cc1cccc(-c2noc(CCC(=O)Nc3ccccc3)n2)c1 | – | inconclusive: 0.501 µM [activator, full curve]
COC(=O)N/N=C/c1ccc(Oc2ccccc2)cc1 | inactive: -9.27% | –
COc1cc(-c2nc3n(n2)C(c2ccc(F)cc2)C2=C(CCCC2=O)N3)cc(OC)c1OC (stereo not drawn) | – | inconclusive: 20 µM [activator, partial curve]
O=S(=O)(c1ccc(C2CCCCC2)cc1)N1CCCC1 | – | inconclusive: 15.8 µM [inhibitor, single point]
COc1cccc(-c2nnc(NC(=O)c3ccc(S(=O)(=O)N4CC(C)OC(C)C4)cc3)o2)c1 (stereo not drawn) | – | active: 3.98 µM
Cc1ccc(C2=NN=C(NC(=O)CSc3nnc4c5ccccc5n(C)c4n3)SC2)cc1 | – | inconclusive: 3.98 µM [activator, single point]
CC(C)OCCCNC(=O)CCC(=O)NNc1nc2ccccc2c2nc(-c3ccccc3)nn12 | – | inconclusive: 2.82 µM [inhibitor, full curve]
CN(C)CCCN(C(=O)COc1ccccc1)c1nc2ccc(F)cc2s1 | – | inconclusive: 0.562 µM [activator, single point]
CCOC(=O)c1ccc(COC(=O)c2nonc2N)cc1 | – | inconclusive: 3.16 µM [activator, partial curve]
CC(=O)NC1(C(F)(F)F)C(=O)NC(C)=C1C#N (stereo not drawn) | – | inconclusive: 12.6 µM [inhibitor, single point]
NC(N)=Nc1nc(-c2ccccc2)c2cc(F)ccc2n1 | – | inconclusive: 22.4 µM [inhibitor, single point]
Cc1ccccc1C(=O)c1cccn1CC(=O)NC(C)c1ccc2c(c1)OCCO2 (stereo not drawn) | – | inconclusive: 35.5 µM [inhibitor, single point]
CC(C)CC(=O)NC(=S)Nc1ccc(N2CCN(C(=O)c3cccs3)CC2)cc1 | inactive: 2.26% [at 9.22 µM] | –
COc1ccccc1N(CC(=O)NCCc1ccccc1)S(C)(=O)=O | – | inconclusive: 25.1 µM [inhibitor, single point]
CCC(C)Sc1nc2c(c(=O)[nH]c(=O)n2C)n1CC(O)COc1cccc2ccccc12 (stereo not drawn) | – | inconclusive: 1.12 µM [activator, full curve, poor fit]
CCc1cc(=O)n2c([nH]c3ccccc32)c1C#N | – | inconclusive: 7.08 µM [inhibitor, partial curve]
CC1CN(Cc2ccccc2Cl)CC(C)O1 (stereo not drawn) | – | inconclusive: 0.355 µM [activator, full curve, poor fit]
CCCN(CCC)c1nc(NC2CCN(C(=O)OCC)CC2)nc(OC)n1 | – | inconclusive: 22.4 µM [inhibitor, single point]
Cc1ccc(C)c(N2CCN(C(=O)Cc3cn(C)c4ccccc34)CC2)c1 | – | inconclusive: 35.5 µM [inhibitor, single point]
COC(=O)CNC(=O)c1cc(-c2ccncc2)nc2c(C)c(Cl)ccc12 | inactive: 20.2% | –

Compounds shown so far containing bromine:
Compound | activity change, negative = inhibition | Potency
CCCOc1c(Br)cc(/C=N/O)cc1OC | – | inconclusive: 10 µM [inhibitor, partial curve]
COC(=O)Oc1ccc(/C=N/NC(=O)CN(c2ccccc2Br)S(C)(=O)=O)cc1OC | – | inconclusive: 0.562 µM [activator, partial curve, poor fit]
O=C(NNc1ccccc1Br)C(O)(c1cccc(C(F)(F)F)c1)c1cccc(C(F)(F)F)c1 | – | inconclusive: 35.5 µM [inhibitor, single point]
